# From publication PMC7819943, “Rice protein-binding microarrays: a tool to detect cis-acting elements near promoter regions in rice”
# The other results are listed elsewhere or left out.
# Molecular target: T1, OsSMF1 (Oryza sativa, UniProt Q6ZLB0 1-436)
# T1 sequence: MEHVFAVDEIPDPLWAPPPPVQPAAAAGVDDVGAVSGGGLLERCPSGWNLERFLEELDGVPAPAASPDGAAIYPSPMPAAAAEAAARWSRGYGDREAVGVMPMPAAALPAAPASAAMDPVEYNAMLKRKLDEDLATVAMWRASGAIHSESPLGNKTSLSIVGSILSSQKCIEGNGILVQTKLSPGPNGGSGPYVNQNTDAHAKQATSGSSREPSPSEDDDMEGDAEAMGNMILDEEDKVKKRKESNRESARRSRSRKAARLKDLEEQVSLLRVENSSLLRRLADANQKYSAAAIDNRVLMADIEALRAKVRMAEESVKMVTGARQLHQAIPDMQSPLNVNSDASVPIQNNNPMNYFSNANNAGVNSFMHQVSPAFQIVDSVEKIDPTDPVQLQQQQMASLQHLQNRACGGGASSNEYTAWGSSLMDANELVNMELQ
# Test: protein-binding microarray (RPBM); PBS, 2% BSA, 51.3 ng/ul salmon testes DNA, 50 uM zinc acetate, 200 nM TF, 25 C, 1 h; high values mean tight binding
# Settings: protein: recombinant; tags: N-terminal polyhistidine and DsRed monomer fusion (pET32a); chain copies: 2; label: CyDye5-dUTP incorporated in the synthesized complementary strand; 3' TTTTT single-stranded linker to array surface; dsDNA, one strand shown
# Method in brief: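 Using Ni–NTA, transcription factors fused N-terminally to polyhistidine and DsRed were purified after expression in E. coli BL21-CodonPlus. These were incubated at 200 nM with a blocked, double-stranded custom Agilent array for 1 h at 25 °C in a buffer containing 50 µM zinc acetate, and the array was washed. The binding signal is per-feature fluorescence intensity (arbitrary units) on an Axon 4000B scanner.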
row,Sequence,binding signal
1,TCGCCAACACCAACCTAGTCACTAGATCATCGGCTTGTCTCGGAGTCACCTAGTGCAG,5300 fluorescence intensity (a.u.)
2,CCCGCCGCGCCGCGTCCCGGCCACCGCGCCGCCCGCCGCGCGGAGTCACCTAGTGCAG,4250 fluorescence intensity (a.u.)
3,TATATATCTGGGTGATTGGTGGTGAGTAGTTGTTCTTGCTCGGAGTCACCTAGTGCAG,3170 fluorescence intensity (a.u.)
4,TAAACCAGTTGTCACATGCCAGTCATCACATCAGCTCGCGCGGAGTCACCTAGTGCAG,6130 fluorescence intensity (a.u.)
5,AATACTAAATCGAGGAGGCTTTGTTTTGGTGAACTATAAGCGGAGTCACCTAGTGCAG,25300 fluorescence intensity (a.u.)
6,ACACGGTCCCTAGACGATTTTAACTGACGTAACATCAACACGGAGTCACCTAGTGCAG,4880 fluorescence intensity (a.u.)
7,ACTATCTACCTTGCGTGTCGGAAATTGTCATTCCGTTTATCGGAGTCACCTAGTGCAG,3680 fluorescence intensity (a.u.)
8,GACTGGTGGACGTACGTCTGCGTCGAGTCTGTCGGTCTAGCGGAGTCACCTAGTGCAG,4290 fluorescence intensity (a.u.)
9,GCGTAACCATCGTCACCACCACCGCGCCATCGCGGCTGGACGGAGTCACCTAGTGCAG,4010 fluorescence intensity (a.u.)
10,AAAACTTAATTAGTGCCAGGTCATACAGATTCCAGATAATCGGAGTCACCTAGTGCAG,6890 fluorescence intensity (a.u.)
11,TCGGTCGGTACTCAGTTCTTTGCCAACTACCACTGTATAACGGAGTCACCTAGTGCAG,4650 fluorescence intensity (a.u.)
12,ACTCCACAAGCATGCCATCCCATGAGGTGGGCTTTTGTGACGGAGTCACCTAGTGCAG,3510 fluorescence intensity (a.u.)
13,AAAAGACTGGAATACGTGGCGAACAAACTTTATTACACAACGGAGTCACCTAGTGCAG,6740 fluorescence intensity (a.u.)
14,TTTTCTGCTCCGCGCCATCTCCTCCTCTGCTCGCCTCTGCCGGAGTCACCTAGTGCAG,3480 fluorescence intensity (a.u.)
15,GTGTGCCACGTGGGCAATTACGATAAGCGAAGCAAAGCGGCGGAGTCACCTAGTGCAG,24900 fluorescence intensity (a.u.)
16,TTGTTCGAGTTGGCTAGCTAGCCAACGTGGTGGGCGCACGCGGAGTCACCTAGTGCAG,4080 fluorescence intensity (a.u.)
17,GCAGCTACCCAACCATCGCACCGCCACCATCGCCGGCACGCGGAGTCACCTAGTGCAG,4680 fluorescence intensity (a.u.)
18,CTCCCTTTCCGATGGTCAACGTGACGTCAGCAGTGAGCTTCGGAGTCACCTAGTGCAG,21700 fluorescence intensity (a.u.)
19,CACGCCAACGCCCAAGCCCACCAACCCAAGTTGAGTCGTGCGGAGTCACCTAGTGCAG,3360 fluorescence intensity (a.u.)
20,GTAGTGGACTGATTTAGGCCAATATTTTGAGAAAATATTACGGAGTCACCTAGTGCAG,16100 fluorescence intensity (a.u.)
21,CTCAAACCGGTGGCCCACAGGTCAGCCTCCCCATCCACCTCGGAGTCACCTAGTGCAG,4400 fluorescence intensity (a.u.)

row,Sequence,binding signal
1,ACAGGACATCCGACCTCAACACCCTTACAACCAATAAAAGCGGAGTCACCTAGTGCAG,31800 fluorescence intensity (a.u.)
2,CAGGTGGGTCCCACGCTGACTCAGCTGTCACATAGACCAACGGAGTCACCTAGTGCAG,11300 fluorescence intensity (a.u.)
3,GCCAAAACCAAAAGAGAGACTCCTCGCCTCGCCTCGCCTCCGGAGTCACCTAGTGCAG,3230 fluorescence intensity (a.u.)
4,GTAGCAGGGATTGGAGACAGTGACTCTGCACTTCCTTTCACGGAGTCACCTAGTGCAG,4460 fluorescence intensity (a.u.)
5,ACACTGGTGATTGGTTTGAATGCTTGCTCACGAGTTGGGTCGGAGTCACCTAGTGCAG,4440 fluorescence intensity (a.u.)
6,AGGAGGTTGACGACGGCGGCAGCAACGGCGGTGGCTCTCGCGGAGTCACCTAGTGCAG,3460 fluorescence intensity (a.u.)
7,CGGCTGGTGTAGCTCAGTTCGTACGTGTTCTGCCTTTATACGGAGTCACCTAGTGCAG,3610 fluorescence intensity (a.u.)
8,TTGTTGTGTGCCCTACACGTGAGCTGGCTGATCAGGCTGCCGGAGTCACCTAGTGCAG,5570 fluorescence intensity (a.u.)
9,CTCGAGCCCGCGGATGGCGCCCCATGGCGTGGCGGCGGAGCGGAGTCACCTAGTGCAG,3820 fluorescence intensity (a.u.)
10,CGTTGCTTGCCTTTGGCTTGTGAGTCGAGCTGAGCGAGTTCGGAGTCACCTAGTGCAG,3660 fluorescence intensity (a.u.)
11,GCTTTTCATTTAATATCTGATAAAACTTACCAAAGAGGAACGGAGTCACCTAGTGCAG,12800 fluorescence intensity (a.u.)
12,AGATCTATTAGCTAGCCACAGAAAACCATATGATCGTCAGCGGAGTCACCTAGTGCAG,3380 fluorescence intensity (a.u.)
13,TTCCGGCGCCATCTCGAACGACACGAACTGGTGGCCCCAGCGGAGTCACCTAGTGCAG,3660 fluorescence intensity (a.u.)
14,GGGGAGGCAAGGCGGGCAATGTGGTGGCAGGCTTGAGTGGCGGAGTCACCTAGTGCAG,3230 fluorescence intensity (a.u.)
15,CGGGACGGCGCGCTTGCTGACTGCTCCTCCACTACTGGCACGGAGTCACCTAGTGCAG,3320 fluorescence intensity (a.u.)
16,GAGTATTTGGCATGGTTGTAGCGTTGGTGACCTGAGTCATCGGAGTCACCTAGTGCAG,7270 fluorescence intensity (a.u.)
17,CCCCTACTATTTTCTAGGCTAGGAAGCGTGCGATCTTTTCCGGAGTCACCTAGTGCAG,3240 fluorescence intensity (a.u.)
18,GGACGCAGCACACGCAAGCAGTTATTGCCACGTCTATTGGCGGAGTCACCTAGTGCAG,6980 fluorescence intensity (a.u.)
19,ATGCGTCCTGAATTGTACTCTTCAGCGGAGTCACTTCAGCCGGAGTCACCTAGTGCAG,3320 fluorescence intensity (a.u.)
20,CCCAACCACTGACGCCGCGCACGCCACGTCAACGTGGGGCCGGAGTCACCTAGTGCAG,26900 fluorescence intensity (a.u.)
21,ATTCACTGGAGGTGGTGCATCAGCATCACCAAAGCTAGCACGGAGTCACCTAGTGCAG,3970 fluorescence intensity (a.u.)

# Part of the list above, tab-delimited:
row	Sequence	binding signal
4	GTAGCAGGGATTGGAGACAGTGACTCTGCACTTCCTTTCACGGAGTCACCTAGTGCAG	4460 fluorescence intensity (a.u.)
5	ACACTGGTGATTGGTTTGAATGCTTGCTCACGAGTTGGGTCGGAGTCACCTAGTGCAG	4440 fluorescence intensity (a.u.)
6	AGGAGGTTGACGACGGCGGCAGCAACGGCGGTGGCTCTCGCGGAGTCACCTAGTGCAG	3460 fluorescence intensity (a.u.)
7	CGGCTGGTGTAGCTCAGTTCGTACGTGTTCTGCCTTTATACGGAGTCACCTAGTGCAG	3610 fluorescence intensity (a.u.)
8	TTGTTGTGTGCCCTACACGTGAGCTGGCTGATCAGGCTGCCGGAGTCACCTAGTGCAG	5570 fluorescence intensity (a.u.)
10	CGTTGCTTGCCTTTGGCTTGTGAGTCGAGCTGAGCGAGTTCGGAGTCACCTAGTGCAG	3660 fluorescence intensity (a.u.)
12	AGATCTATTAGCTAGCCACAGAAAACCATATGATCGTCAGCGGAGTCACCTAGTGCAG	3380 fluorescence intensity (a.u.)
13	TTCCGGCGCCATCTCGAACGACACGAACTGGTGGCCCCAGCGGAGTCACCTAGTGCAG	3660 fluorescence intensity (a.u.)
15	CGGGACGGCGCGCTTGCTGACTGCTCCTCCACTACTGGCACGGAGTCACCTAGTGCAG	3320 fluorescence intensity (a.u.)
18	GGACGCAGCACACGCAAGCAGTTATTGCCACGTCTATTGGCGGAGTCACCTAGTGCAG	6980 fluorescence intensity (a.u.)
19	ATGCGTCCTGAATTGTACTCTTCAGCGGAGTCACTTCAGCCGGAGTCACCTAGTGCAG	3320 fluorescence intensity (a.u.)
20	CCCAACCACTGACGCCGCGCACGCCACGTCAACGTGGGGCCGGAGTCACCTAGTGCAG	26900 fluorescence intensity (a.u.)
